Test results reported in PubChem BioAssay AID602474 (National Center for Advancing Translational Sciences (NCATS), 2012).
The inconclusive results got no clear call from the source; some entries with a clear call stand among them for comparison. A potency beside an inconclusive call is a rough fit, not a confirmed value. Activity calls are given as the source filed them. The call rests on the fitted dose curve; in most records, active means well fitted inhibition curve with a large enough effect; inconclusive means small, poorly fitted or top-dose-only effect; inactive means no such curve, though single readings can be large or run the other way.

The chains behind the UniProt entries cited, without tags or fusion partners.
UniProt P08659, whole entry, looked up: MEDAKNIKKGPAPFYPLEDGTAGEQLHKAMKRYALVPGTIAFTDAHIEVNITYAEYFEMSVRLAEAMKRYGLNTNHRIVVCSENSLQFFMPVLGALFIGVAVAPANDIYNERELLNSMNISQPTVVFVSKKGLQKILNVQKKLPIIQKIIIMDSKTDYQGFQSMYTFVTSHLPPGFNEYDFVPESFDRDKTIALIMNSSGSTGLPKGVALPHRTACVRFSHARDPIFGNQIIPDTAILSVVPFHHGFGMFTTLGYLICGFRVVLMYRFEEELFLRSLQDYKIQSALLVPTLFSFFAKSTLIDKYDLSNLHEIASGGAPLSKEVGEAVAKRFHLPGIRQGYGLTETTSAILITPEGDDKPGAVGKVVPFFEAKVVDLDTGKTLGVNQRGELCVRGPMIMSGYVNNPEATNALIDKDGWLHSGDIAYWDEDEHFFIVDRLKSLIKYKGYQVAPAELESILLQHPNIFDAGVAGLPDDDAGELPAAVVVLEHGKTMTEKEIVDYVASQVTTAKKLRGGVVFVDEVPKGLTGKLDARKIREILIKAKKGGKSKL

Target: Luciferin 4-monooxygenase (Photinus pyralis) (UniProt P08659)
Experiment: FLuc inhibitory activity for the follow-up compounds in a biochemical assay with a commercial detection reagent - BriteliteTM Plus (PerkinElmer)
Settings: purified FLuc, Britelite Plus luminescence; series mostly up to 38.3 µM
Excerpt: NCGC Assay Overview: Firefly (Photinus pyralis) luciferase is one of the most commonly used transcriptional reporters. It is considered one of the more dynamically responsive reporters - that is, responsive to changes in reporter transcription - as it requires no post-translational modifications and is enzymatically active directly after protein synthesis (Wood, 1998). With no endogenous expression in mammalian cells and without the requirement of external excitation, it offers very little background signal, thus generally providing excellent signal to background for most assays. Previous profiling work to determine the prevalence of compounds that affect FLuc enzymatic activity (PubChem AID 411) identified that ~3% of the MLSMR library (then at ~72K) inhibited FLuc (Auld et al., 2008). […] Of the compounds identified in this profile that inhibited FLuc, 151 compounds were selected for further analysis, in an effort to better understand their mode of inhibiting FLuc. The assay described here was to determine the activity of the compounds in a FLuc assay that used a commercial formulation of detection reagent (BriteliteTM Plus; PerkinElmer).
NCGC Assay Protocol Summary: Reagents: Britelite Plus detection reagent; 50mM Tris acetate, pH 7.5; 10nM P. pyralis luciferase (Sigma #L9506) Control compounds used were two known firefly luciferase inhibitors (3-(5-(3-chlorophenyl)-1,2,4-oxadiazol-3-yl)benzoic acid and 5-(2-fluorophenyl)-3-phenyl-1,2,4-oxadiazole), and DMSO. Assay Summary: Three microliters of buffer containing firefly luciferase (final concentrations: 50mM Tris acetate, 10nM P. pyralis luciferase) are dispensed into each well of a Greiner white, solid-bottom 1536-well format plate using a flying reagent dispenser (FRD). These assay plates were then treated with 23nL of compound or DMSO using a Kalypsys pin tool, which allows for delivery of a 12-point intraplate titration of each compound to the assay plate (quantitative HTS), with final compound concentrations ranging from approximately ~38uM to 0.2nM. Three microliters of 2X Britelite Plus detection reagent was then delivered by FRD to each well. Luciferase activity was then measured using a ViewLux CCD imager (PerkinElmer), with an average exposure time of 2-30 seconds (2X binning, medium/high gain).

Compound | Potency
COc1ccc2nc(NC(=O)c3nc(S(=O)(=O)Cc4ccc(C)cc4)ncc3Cl)sc2c1 | inactive
COc1ccc(CC(=O)Nc2cccc(C(=O)Nc3ccccc3C(=O)O)c2)cc1OC | inactive
O=C(O)c1cccc(NC(=O)c2ccc(S(=O)(=O)c3ccccc3)cc2)c1 | inactive
CCOc1ccc2nc(NC(=O)c3ccccn3)sc2c1 | active: 0.895 µM
Nc1ccccc1-c1nc2ccccc2s1 | inconclusive: 20 µM [inhibitor, partial curve, poor fit]
O=C(Nc1ccccc1-c1nc2ccccc2s1)c1ccc(Br)o1 | inactive
Oc1ccc(-c2nc3ccccc3s2)c(O)c1 | inconclusive: 3.18 µM [inhibitor, full curve, poor fit]
COc1ccc2nc(NC(=O)Cc3cccs3)sc2c1 | inconclusive: 2.83 µM [inhibitor, partial curve, poor fit]
Cc1c(NC(=O)c2cccs2)cccc1-c1nc2ccccc2s1 | inconclusive: 5.65 µM [inhibitor, partial curve, poor fit]
CCOc1c(Cl)cc(C(=O)Nc2ccccc2C(=O)O)cc1Cl | inconclusive: 11.3 µM [inhibitor, partial curve]
O=C(O)c1ccc(NC(=O)c2ccccc2NC(=O)c2cccc(Br)c2)cc1 | inactive
Cc1ccc2nc(-c3ccc(N)cc3)sc2c1 | active: 0.895 µM
CN(C)c1cccc(C(=O)Nc2ccc(-c3nc4ccccc4s3)cc2)c1 | inconclusive: 31.8 µM [inhibitor, partial curve, poor fit]
CC(C)Oc1ccc(C(=O)Nc2ccc(-c3nc4ccccc4s3)cc2)cc1 | inconclusive: 4.49 µM [inhibitor, partial curve, poor fit]
O=C(Nc1ccccc1C(=O)O)c1ccc(NC(=O)C2CC2)cc1 | active: 4.49 µM
COc1ccc(C(=O)Nc2ccccc2C(=O)Nc2ccccc2C(=O)O)cc1 | active: 11.3 µM
O=C(Nc1ccccc1C(=O)O)c1cc(S(=O)(=O)NCc2ccccc2)ccc1Cl | inactive
CC(=O)Oc1ccc(C(=O)Nc2ccccc2C(=O)Nc2cccc(C(=O)O)c2)cc1 | inconclusive: 12.6 µM [inhibitor, partial curve]
COc1ccc2nc(NC(=O)c3ccccc3C(=O)O)sc2c1 | inconclusive: 11.3 µM [inhibitor, partial curve]
COc1ccc2nc(NC(=O)CCc3nc(-c4ccccc4F)no3)sc2c1 | inconclusive: 5.65 µM [inhibitor, full curve]

Some of the entries so far, comma-delimited.
Compound,Potency
O=C(O)c1ccc(NC(=O)c2ccccc2NC(=O)c2cccc(Br)c2)cc1,inactive
Cc1ccc2nc(-c3ccc(N)cc3)sc2c1,active: 0.895 µM
CN(C)c1cccc(C(=O)Nc2ccc(-c3nc4ccccc4s3)cc2)c1,"inconclusive: 31.8 µM [inhibitor, partial curve, poor fit]"
CC(C)Oc1ccc(C(=O)Nc2ccc(-c3nc4ccccc4s3)cc2)cc1,"inconclusive: 4.49 µM [inhibitor, partial curve, poor fit]"
